Laboratory results reported in PubChem BioAssay AID2551 (National Center for Advancing Translational Sciences (NCATS), 2010).
Screen size: about 310,000 compounds; about 17,000 (5.5%) were called active. The inconclusive results got no clear call from the source; some entries with a clear call stand among them for comparison. The call rests on the fitted dose curve; in most records, active means well fitted inhibition curve with a large enough effect; inconclusive means small, poorly fitted or top-dose-only effect, or effect the other way; inactive means no such curve, though single readings can be large or run the other way. A potency beside an inconclusive call is a rough fit, not a confirmed value.

Amino acid sequences for entries named in this document (tags omitted). A change or cut given only in a name is not applied to a line headed by its entry.
UniProt P51450: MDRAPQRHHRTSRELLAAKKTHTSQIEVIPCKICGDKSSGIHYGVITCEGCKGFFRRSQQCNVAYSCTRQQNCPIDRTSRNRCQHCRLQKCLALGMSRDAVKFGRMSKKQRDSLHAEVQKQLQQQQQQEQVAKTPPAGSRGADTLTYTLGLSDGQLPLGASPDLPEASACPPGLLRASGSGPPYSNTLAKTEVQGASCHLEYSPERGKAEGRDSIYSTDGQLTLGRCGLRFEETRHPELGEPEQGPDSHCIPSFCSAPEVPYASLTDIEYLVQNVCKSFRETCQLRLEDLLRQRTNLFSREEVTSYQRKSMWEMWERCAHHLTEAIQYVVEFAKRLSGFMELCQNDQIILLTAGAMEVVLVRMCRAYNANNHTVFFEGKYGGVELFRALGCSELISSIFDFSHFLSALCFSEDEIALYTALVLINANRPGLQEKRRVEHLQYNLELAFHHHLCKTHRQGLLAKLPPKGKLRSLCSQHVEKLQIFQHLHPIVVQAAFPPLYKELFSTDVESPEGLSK

Each compound was assayed against Nuclear receptor ROR-gamma (Mus musculus) (UniProt P51450) (assay: qHTS for inhibitors of ROR gamma transcriptional activity). Conditions: Drosophila S2 Gal4-RORgamma UAS-luciferase reporter, 20 h; activity change, negative = inhibition: at 53.6 µM (top of the series).
Procedure, shortened: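 Stably transfected Drosophila Schneider cells are the test system, with ROR gamma fused to Gal4 and luciferase under UAS control; luminescence is read after 20 hr of 700 uM copper sulfate induction at ambient temperature.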
Further: nearly all actives have a fitted effect of over 60% in size.
On the % scale 0 is the no-effect control and ±100 the full control effect; potency means the concentration at half of the fitted maximal effect.

Potency, inconclusive:
C=CCN(CC=C)C(=O)C(=O)c1cc(C)n(-c2ccc([N+](=O)[O-])cc2)c1C 12.6 µM [activator, partial curve, poor fit]
CCc1nc2ccc(C(=O)Nc3cccc(C(C)=O)c3)cc2nc1CC 0.282 µM [activator, full curve, poor fit]
CC1(C)CC(=O)C2=C(C1)C(c1cn(-c3ccccc3)nc1-c1ccccc1)C(C#N)=C(N)O2 (centres undefined) 15.8 µM [activator, partial curve]
Cc1nc2c(C(=O)NCc3cccs3)cnn2c(C)c1Cc1ccc(F)cc1 35.5 µM [activator, single point]
O=C(Nc1ccccc1C(=O)Nc1ccc2c(c1)OCO2)c1cccs1 12.6 µM [activator, partial curve]
CCOC(=O)c1c(NC(=O)C2CC(Cl)=CCC2C(=O)O)sc2c1CC(C)(C)OC2 (centres undefined) 12.6 µM [activator, single point]
COc1cc(/C=N/NC(=S)NCCN2CCOCC2)ccc1O 11.2 µM [inhibitor, single point]
COc1cc(OC)c(C(=O)NC23CC4CC(CC(C4)C2)C3)cc1OC 10 µM [activator, partial curve, poor fit]
COC(=O)N/N=C/c1cn(Cc2ccc(Cl)cc2Cl)c2ccccc12 28.2 µM [activator, single point]
Cc1ccc(C(C(=O)NCC2CCCO2)N(Cc2ccccc2)C(=O)c2ccc(-c3ccccc3)[nH]2)o1 (centres undefined) 11.2 µM [activator, partial curve]
CCOc1ccc(C(=O)NC(=S)Nc2ccc(NC(=O)c3ccco3)c(C)c2)cc1[N+](=O)[O-] 2.51 µM [inhibitor, full curve]
Cc1ccc(C2=NNC(C(O)C(O)C(O)C(O)CO)S2)cc1 (centres undefined) 15.8 µM [inhibitor, single point]
O=C(Nc1cccc(F)c1)c1ccc(CSc2ccccc2)o1 14.1 µM [activator, partial curve]
COc1cc(/C=N/n2cnc3scc(-c4cccs4)c3c2=O)cc(OC)c1OC 2.51 µM [activator, full curve]
CCn1cnc2scc(-c3ccccc3)c2c1=O 35.5 µM [activator, single point]
Clc1ncnc2scc(-c3ccccc3)c12 2.82 µM [activator, single point]
CC(C)c1ccc(NC(=S)Nc2ccc3[nH]c(=O)[nH]c3c2)cc1 11.2 µM [inhibitor, partial curve, poor fit]
O=C=Nc1ccc(Cl)c(Cl)c1 35.5 µM [activator, single point]
COCCCn1cc(C(=O)c2cc(Br)ccc2O)cc(C#N)c1=O 35.5 µM [inhibitor, single point]

Potency, active:
NNc1ccc(Cc2ccc(Cl)cc2Cl)nn1 3.55 µM
O=C(CSc1nccn1-c1ncc(C(F)(F)F)cc1Cl)c1ccc(Br)cc1 11.2 µM
CC(=O)Nc1nc(NC(=O)/C=C/c2ccccc2)n(-c2ccccc2)n1 0.282 µM
Cc1cc(C)cc(NC(=S)N(CCN2CCCCC2)Cc2ccco2)c1 10 µM
CCC(=O)NC(c1cccs1)c1cc([N+](=O)[O-])c2cccnc2c1O (centres undefined) 3.16 µM
Cn1cccc1/C=N/NC(=O)c1cc2ccccc2cc1O 1.41 µM
COc1ccc2c(c1)C(=O)[C@H](O)[C@@H](c1ccc(OC)c(Br)c1)O2 7.08 µM
O=C(NC(=S)N1CCN(C/C=C/c2ccccc2)CC1)c1c(F)cccc1F 1.26 µM
O=C(Nc1nccs1)c1ccc(Cl)s1 10 µM
COc1ccccc1N=Nc1ccc(O)c2ncccc12 2.82 µM
COc1cc(NC(=S)NC(=O)c2cc(C)cc(C)c2)ccc1NC(=O)c1cccs1 2 µM
O=C(CC(O)(C(F)(F)F)C(F)(F)F)Nc1ccc(Cl)c(Cl)c1 5.01 µM
Cc1ccccc1OCc1n[nH]c(=S)n1-c1cccc(Cl)c1 3.98 µM

Activity change, negative = inhibition, inactive:
CC(C)[C@@H](CC(=O)N[C@@H]1CCCC[C@H]1C(=O)N[C@H](CC(=O)N[C@@H](CCC(=O)O)CC(=O)O)Cc1c[nH]c2ccccc12)NC(=O)C[C@H](Cc1ccccc1)NC(=O)[C@@H]1CNCC[C@H]1N -15.4%
O=C(NCc1ccccc1)C1CC(=O)N(c2ccc(OCC(=O)N3CCOCC3)cc2)C1 (centres undefined) 11.7%
O=C(N/N=C/c1ccccn1)c1ccc(NC(=O)c2ccccc2Cl)cc1 -19.3%
CCC1OC(=O)C(C)[C@@H](O[C@H]2C[C@@](C)(OC)C(O)C(C)O2)C(C)[C@@H](O[C@@H]2OC(C)CC(N(C)C)C2O)[C@@](C)(O)CC(C)CN(C)C(C)C(O)[C@]1(C)O (some centres undefined) -2.21%
COc1ccc(Br)cc1/C=N/n1c(C)nc2ccccc2c1=O 17%
COc1c(O)cc2c(c1O)[C@@H]1O[C@H](CO)[C@@H](O)[C@H](O)[C@H]1OC2=O -13.1%
CC(=O)N1c2ccc(S(=O)(=O)N(C)CC(=O)NC(C)c3ccccc3)cc2CC1C (centres undefined) -1.27%
Cc1cccc2cc(C(c3nnnn3C(C)(C)C)N(Cc3ccco3)CC3CCCO3)c(=O)[nH]c12 (centres undefined) 14.3%
Cc1cc(C)c2c(N)c(C(=O)C(C)(C)C)sc2n1 1.6%
COc1ccccc1-n1cnc2sc(C)c(C)c2c1=O -6.06%
CCN(CC(=O)N1CCC(C)CC1)S(=O)(=O)c1ccc(C)cc1 -16.2%
COc1ccc(CNC(=O)C/C(C)=N/NC(=O)c2cc(OC)cc(OC)c2)cc1 -12.1%
CCOC(=O)Cc1csc(NC(=O)Nc2ccc(OC(F)(F)F)cc2)n1 33.8%
COc1ccc(C(=O)NN2CCOCC2)cc1 -16.8%
CC(=O)NC(=S)Nc1ccccc1C(=O)Nc1ccccc1 2.86%
Cc1ccc(NC2CCCN(C(=O)c3ccc4[nH]ccc4c3)C2)cc1C (centres undefined) 16.5%
COc1cc2c(cc1OC)C(C)N(C(=O)c1cc3ccccc3o1)CC2 (centres undefined) -24.7%
